By AC50 is commonly meant the concentration at which the activity in the assay is half-maximal.

Some of the results follow. Shown are side measurements of this screen, not its main read-out; they come without a call. The list favours compounds with an active or inconclusive main result. Potencies come from curve fits of mixed quality, noted in brackets.

The nature of the test: qHTS Assay to Find Inhibitors of Chronic Active B-Cell Receptor Signaling. As to conditions: ABC-DLBCL IkBa-CBG/CBR reporter, luminescence ratio (green luciferase fused to IkBa over red control in TMD8 lymphoma cells), 4 h. The procedure, abridged:
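Concentration-response series (up to 46 uM) were applied to TMD8 dual-reporter cells for 4 h at 37C with doxycycline. Green/red ratio, after filter-overlap correction, defined %Activity; red signal alone was normalised to basal cells and zero luminescence.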
(In general: qHTS replaces the single test concentration by a dilution series.)

Where [1] appears, read: measured here: CBR red luminescence, cell number.
[2] abbreviates: measured here: IkBa-CBG green luminescence.

With `COc1ccc(C(=O)NC2CCCCCC2)cc1OC1CCN(C(C)=O)CC1`, under setting [1], the AC50 is 35.5 µM [falling, partial curve, poor fit].
The same measure, in the same setting: to `N#Cc1c(N)n(CCOC(=O)c2ccc(Cl)cc2)c2nc3ccccc3nc12` belongs 4.11 µM [falling, single point]; to `c1ccc(-n2ncc3c2ncn2cnnc32)cc1`, 17.8 µM [falling, partial curve, poor fit].
In the case of `Cc1ccc2oc(=O)c3cnn(CC(=O)NCCN4CCOCC4)c3c2c1`, the concentration at half-maximal activity (AC50) under setting [1] is 32.6 µM [rising, partial curve, poor fit].
On the same count and under the same terms, to `O=C(O)c1cccc(N2C(=O)/C(=C/c3ccc([N+](=O)[O-])cc3)C=C2c2ccccc2)c1` belongs 1.26 µM [falling, full curve]; to `COc1ccc(C(=O)Nc2ncc(C)s2)cc1S(=O)(=O)N1CCOCC1`, 23.1 µM [falling, single point]; to `O=C(Nc1ncc(Cc2ccccc2)s1)c1cccs1`, 35.5 µM [falling, single point].
The same measure, in the same setting: to `COc1ccc(S(=O)(=O)Nc2cccc3c2O[C@H](CN(C)Cc2ccc(Cl)c(Cl)c2)[C@@H](C)CN([C@H](C)CO)C3=O)cc1` belongs 18.4 µM [falling, single point]; to `CCOC(=O)c1cnc(-n2nc(C)cc2C)nc1NC1CCCC1`, 35.5 µM [falling, single point].
Same read-out and setting: to `c1ccc2c(c1)Sc1ccccc1-n1cnnc1-2` belongs 1.16 µM [rising, full curve].
As to `O=C(COC(=O)c1cccc(S(=O)(=O)N2CCN(c3ccccc3)CC2)c1)NCc1ccco1`, the AC50 under setting [1] was 35.5 µM [rising, partial curve, poor fit].
`CCN(CC)c1nc(N)c2c(N)nc3c(c2c1C#N)CC(c1ccccc1)O3` (stereo unspecified): under setting [1], the AC50 is 25.9 µM [falling, partial curve, poor fit].
Turning to `Cc1snc(S(=O)(=O)/C(C#N)=N/Nc2cccc(C(F)(F)F)c2)c1C#N`, the AC50 under setting [1] was 29.1 µM [rising, single point].
As for `Cc1ccc(C(=O)O/N=C(\N)c2ccccc2)c(Cl)c1`, the concentration at half-maximal activity (AC50) under setting [1] is 11.2 µM [falling, single point].
With `COc1ccc(NC(=O)CSc2nnc(-c3cccs3)n2Cc2ccco2)cc1OC`, the AC50 under setting [1] was 17.8 µM [falling, partial curve].
Same read-out and setting: to `COc1ccc(C2=NOC(C(=O)Nc3ccc4c(c3)OCCO4)C2)c(OC)c1` (stereo unspecified) belongs 12.6 µM [falling, partial curve, poor fit]; to `COC(=O)c1ccc(CNC(=O)COC(=O)/C=C/c2cc(OC)c(OC)c(OC)c2)cc1`, 2.31 µM [rising, partial curve, poor fit]; to `COc1ccc(-c2nc(N)n(C(=O)c3ccc(C)cc3)n2)cc1`, 5.17 µM [falling, partial curve, poor fit].
Take `Cc1ccc(C(=O)NCCSc2c(C)[nH]c3ccccc23)cc1[N+](=O)[O-]`: under setting [2], the AC50 is 20.6 µM [falling, single point].
As to `O=C(c1ccccc1)c1nn(-c2ccc(Cl)cc2)c(=O)cc1C(F)(F)F`, the AC50 under setting [1] is 3.16 µM [falling, full curve, poor fit].
Same read-out and setting: to `CCOCCCNC(=O)NC12CC3CC(CC(C3)C1)C2` belongs 5.62 µM [rising, single point]; to `Cc1ccc[n+](-c2nc([O-])sc2/C=N/Nc2ccc([N+](=O)[O-])cc2)c1`, 1 µM [rising, full curve, poor fit]; to `Nc1cc(N2CCCCC2)c(Cl)cc1[N+](=O)[O-]`, 29.1 µM [rising, single point].
On to `O=C(NCCc1nc2ccccc2[nH]1)c1cc([N+](=O)[O-])cc([N+](=O)[O-])c1`, for which the AC50 under setting [2] is 25.9 µM [rising, partial curve, poor fit].
For the compound `COc1cccc(N2CC(O)=C(c3nc4ccccc4s3)C2=N)c1`, the AC50 by setting is: under setting [1], 8.91 µM [rising, partial curve]; under setting [2], 6.31 µM [falling, partial curve, poor fit].
For the compound `c1ccc(N2CCN(c3nnc(Cc4cccnc4)c4ccccc34)CC2)nc1`, the AC50 under setting [1] is 15.8 µM [falling, single point].
Still for that read-out and setting: to `C=C1SC(Nc2c(C)cc(C)cc2C)=NC12CCCCC2` belongs 5.62 µM [rising, single point].
For `CCCOc1ccc(C2C(=O)N(C3CCCCCC3)CC(=O)N2CCC)cc1OC` (stereo unspecified), the AC50 under setting [1] is 44.7 µM [falling, partial curve, poor fit].
The same measure, in the same setting: to `COC(=O)N1C(=O)[C@@](c2ccccc2)(C2CCCCC2)N1C(=O)OC` belongs 10 µM [falling, partial curve, poor fit].
Still for that read-out and setting: to `CCOC(=O)/C(C#N)=C/C1=C(N2CCOCC2)CC(C)(C)OC1` belongs 0.501 µM [rising, full curve, poor fit].
The same measure, in the same setting: to `CCc1ccccc1NC1=NCC(=O)N1C1CCCC1` belongs 31.6 µM [rising, partial curve, poor fit].
In the case of `COc1ccc(C(=O)O/N=C(\N)c2ccccc2)cc1`, the AC50 was 5.01 µM [falling, partial curve, poor fit] under setting [1] and 0.1 µM [rising, full curve, poor fit] under setting [2].
As to `CCCOC(=O)c1ccc(-c2c(C)noc2-c2ccc(OC)cc2O)o1`, the AC50 reads like this: under setting [1], 0.461 µM [rising, partial curve, poor fit]; under setting [2], 0.461 µM [falling, full curve, poor fit].
Regarding `CCn1c(SCC(=O)c2ccc(F)cc2)nnc1-c1ccoc1C`, under setting [1], the AC50 was 0.116 µM [falling, partial curve, poor fit].
The same measure, in the same setting: to `COc1ccc(NC(=O)c2cc(-c3cccc(OC)c3)on2)cc1` belongs 8.91 µM [falling, partial curve, poor fit].
Same read-out and setting: to `CCN(CC)C(=O)COc1ccc2c3c(c(=O)oc2c1)CCCC3` belongs 35.5 µM [rising, single point].
Still for that read-out and setting: to `CCOC(=O)C1NN=C(C(=O)c2ccccc2)C1c1ccccc1` (stereo unspecified) belongs 29.1 µM [falling, single point]; to `NC1=NCC(O)=C1c1nc2ccccc2[nH]1`, 5.62 µM [falling, full curve].
With `C=C(C)CNC(=S)NNC(=O)c1ccco1`, the AC50 under setting [1] was 25.9 µM [rising, single point] and the concentration at half-maximal activity (AC50) under setting [2] is 29.1 µM [falling, single point].
With `O=C(Cc1ccccc1)NC(c1ccco1)c1c(O)ccc2ccccc12` (stereo unspecified), the AC50 under setting [1] was 35.5 µM [falling, single point].
Still for that read-out and setting: to `CN(C)CCCN(C(=O)COc1ccccc1)c1nc2cc3c(cc2s1)OCO3` belongs 12.6 µM [falling, single point]; to `Cc1ccc(Nc2nnc(-c3ccc(C)c(S(N)(=O)=O)c3)c3ccccc23)cc1`, 11.2 µM [falling, partial curve, poor fit]; to `CC(C(=O)N1CCc2ccccc21)N1CCN(S(=O)(=O)c2ccc(C(F)(F)F)cc2)CC1` (stereo unspecified), 29.1 µM [falling, single point].
Still for that read-out and setting: to `O=C(N/N=C/c1cccc(O)c1)c1csc2ccccc12` belongs 5.01 µM [falling, partial curve]; to `Cc1[nH]c2ccccc2c1SCC(=O)N1CCCc2ccccc21`, 3.66 µM [rising, partial curve, poor fit].
For `O=C(N/N=C(\c1ccccc1)c1ccccn1)c1cccc([N+](=O)[O-])c1`, the AC50 under setting [2] is 10 µM [falling, partial curve, poor fit].
The same measure, in the same setting: to `Cc1ccc(-c2noc(CCCOc3ccc(Cl)cc3Cl)n2)cc1` belongs 32.6 µM [rising, partial curve, poor fit].
As for `Cc1ccc(CSCC(=O)N(C)CC(=O)Nc2ccc(Br)cc2C)cc1`, the AC50 under setting [1] is 18.4 µM [falling, single point].
On the same count and under the same terms, to `COc1ccc(NC(=O)CN(C)CC(=O)Nc2cccc(C(F)(F)F)c2)cc1` belongs 35.5 µM [falling, single point].
As for `O=c1nc(Nc2cccc(Cl)c2)oc2cc(Cl)oc(=O)c12`, the AC50 under setting [1] was 3.98 µM [falling, full curve, poor fit].
On the same count and under the same terms, to `O=C(Oc1ccc2c(c1)OCC2=O)c1ccccc1` belongs 29.1 µM [rising, single point]; to `CSc1nc(SCC(=O)O)c2sc3nc(-c4ccccc4)c4c(c3c2n1)CCC4`, 20 µM [falling, partial curve, poor fit].
On the same count and under the same terms, to `O=c1cc(CSc2ccccc2)nc(-c2ccncc2)[nH]1` belongs 25.1 µM [falling, single point]; to `Nc1c(C(=O)NCCN2CCOCC2)c2nc3ccccc3nc2n1-c1ccccc1`, 22.4 µM [falling, single point].
Regarding `COCCSc1nnc(NS(=O)(=O)Cc2ccccc2)s1`, the AC50 under setting [1] was 3.66 µM [rising, partial curve].
The same measure, in the same setting: to `C=C(C)COc1ccc(-c2nc(N)ncc2-c2ccc(OC)cc2)c(O)c1` belongs 35.5 µM [falling, single point]; to `NNC(=O)c1cc(O)c(O)c(O)c1`, 11.2 µM [falling, partial curve].
Same read-out and setting: to `CC(C)(C)OC(=O)C[C@H]1C/C=C\C[C@H](CC(=O)N[C@H](CO)Cc2ccccc2)C(=O)N2CCC[C@@H]2COC1=O` belongs 4.61 µM [falling, single point]; to `C/C(=N\NC(=O)CC(C)C)c1ccc(Cl)c(Cl)c1`, 2.51 µM [rising, full curve, poor fit].
The same measure, in the same setting: to `CN1C=CC=C/C1=C1\SC(=S)N(CC(=O)O)C1=O` belongs 35.5 µM [rising, single point]; to `COc1ccccc1/C=C(/NC(=O)c1ccccc1)C(=O)NCCCn1ccnc1`, 11.2 µM [falling, single point]; to `Cc1cccc(CCN=c2c([N+](=O)[O-])nn(-c3ccccc3)n2O)c1`, 0.398 µM [falling, partial curve, poor fit].
